Patent US20230146455A1 (Yuyu Pharma, Inc., priority 2020, published 2023)

Tests used:
Format in all cases: cell-based, human
[1] = test system: TNF-alpha; experiment: Example 9 Luminex, LPS hPBMCs: TNF-alpha
Procedure: (§1) Treatment Human PBMCs were pretreated with YY-101, YDE-011 and YDE-043 or reference compound; Xiidra® at various concentration (ranging from 1 nM to 100 uM) for 2 h before stimulation. An equal volume of 0.5% DMSO was used as a vehicle control. Then, the cells were treated with LPS at 5 ug/ml. The supernatants from treated cells were harvested at 24 h and placed in a 96 well for Luminex cytokine & chemokine profiling using a Luminex 200 multiplex assay (Luminex; R&D system, USA).
(§2) The main study arm with triplicate wells per group in a 24-well plate: • 1. Blank • 2. PBMC: 0.5% DMSO • 3. PBMC+LPS (5 ug/ml) • 4. PBMC+YY-101 100 uM • 5. PBMC+YY-101 10 uM • 6. PBMC+YY-101 1 uM • 7. PBMC+YY-101 0.1 uM • 8. PBMC+YY-101 0.01 uM • 9. PBMC+LPS (5 ug/ml)+Xiidra®100 uM • 10. PBMC+LPS (5 ug/ml)+Xiidra® 10 uM • 11. PBMC+LPS (5 ug/ml)+Xiidra® 1 uM • 12. PBMC+LPS (5 ug/ml)+Xiidra®0.1 uM • 13. PBMC+LPS (5 ug/ml)+Xiidra®0.01 uM • 14. PBMC+LPS (5 ug/ml)+Xiidra®0.001 uM • 15. PBMC+LPS (5 ug/ml)+YY-101 100 uM • 16. PBMC+LPS (5 ug/ml)+YY-101 10 uM • 17. PBMC+LPS (5 ug/ml)+YY-101 1 uM • 18. PBMC+LPS (5 ug/ml)+YY-101 0.1 uM • 19. PBMC+LPS (5 ug/ml)+YY-101 0.01 uM • 20. PBMC+LPS (5 ug/ml)+YY-101 0.001 uM • 21. PBMC+LPS (5 ug/ml)+YDE-011 100 uM • 22. PBMC+LPS (5 ug/ml)+YDE-011 10 uM • 23. PBMC+LPS (5 ug/ml)+YDE-011 1 uM • 24. PBMC+LPS (5 ug/ml)+YDE-011 0.1 uM • 25. PBMC+LPS (5 ug/ml)+YDE-011 0.01 uM • 26. PBMC+LPS (5 ug/ml)+YDE-011 0.001 uM • 27. PBMC+LPS (5 ug/ml)+YDE-043 100 uM • 28. PBMC+LPS (5 ug/ml)+YDE-043 10 uM • 29. PBMC+LPS (5 ug/ml)+YDE-043 1 uM • 30. PBMC+LPS (5 ug/ml)+YDE-043 0.1 uM • 31. PBMC+LPS (5 ug/ml)+YDE-043 0.01 uM • 32. PBMC+LPS (5 ug/ml)+YDE-043 0.001 uM
(§3) Multiplex assay was used to measure 30 cytokines and chemokines. The 1:2, 1:10 and 1:200 diluted cell supernatant and serial dilution of the standard were dispensed into a 96 well plate at 50 ul/well. Then, the pre-mixed cocktail of antibody-coated magnetic beads was dispensed at 50 ul/well and incubated at room temperature for 2 h in a horizontal orbital microplate shaker at 800±500 rpm. The beads were washed using a magnetic device to prevent loss. The biotin-antibody was dispensed in 50 ul of each well and incubated at room temperature for 1 h in a shaker at 800±500 rpm. After washing, streptavidin-PE was added at 50 ul/well and incubated at room temperature for 30 min in a shaker under the same conditions. Finally, after washing, wash buffer (100 ul/well) was added to the plate and incubated in a shaker for 2 min. The Luminex™ 200 setting were set according to the manufacturer's protocol. The data was calculated with a standard five-parameter logistic nonlinear regression analysis of the data (xPonent software 4.2, USA). The levels of cytokine/chemokine are normalized to the live cell counts (1×10^5 cells/mL) and presented as concentrations per mL (pg/mL or ng/mL).

[2] = test system: CCL2/JE/MCP-1; experiment: Example 9 Luminex, LPS hPBMCs: CCL2/JE/MCP-1; settings: Bead CCL2/JE/MCP-1
Procedure: as §1, §2, §3

[3] = test system: IFN-gamma; experiment: Example 9 Luminex, LPS hPBMCs: IFN-gamma
Procedure: as §1, §2, §3

[4] = test system: IL-1 alpha; experiment: Example 9 Luminex, LPS hPBMCs: IL-1 alpha; settings: Bead IL-1 alpha, replicates and Mean
Procedure: as §1, §2, §3

[5] = PBMC + LPS(5 ug/ml) + test article 0.001 uM, Mean
[6] = PBMC + LPS(5 ug/ml) + test article 0.01 uM, Mean
[7] = PBMC + LPS(5 ug/ml) + test article 0.1 uM, Mean
[8] = PBMC + LPS(5 ug/ml) + test article 1 uM, Mean
[9] = PBMC + LPS(5 ug/ml) + test article 10 uM, Mean
[10] = PBMC + LPS(5 ug/ml) + test article 100 uM, Mean

CC(C)C[C@H](NC(=O)[C@H](CCC(N)=O)NC(=O)CNC(=O)[C@@H]1C[C@@H](O)CN1)C(=O)NCC(=O)O [YDE-043] (H-[Hyp]GQLG-OH; N-terminus and C-terminus assumed) was tested, and the “MFI, Bead name: TNF-alpha” value [1, 5] was 454.2, the “MFI, Bead name: TNF-alpha” value ([1]; PBMC + LPS(5 ug/ml) + test article 0.001 uM, individual replicates (1st, 2nd, 3rd)) was 428.5 and 481.0 and 453.0 and the “MFI, Bead name: TNF-alpha” value [1, 6] was 455.0. For the same molecule, the “MFI, Bead name: TNF-alpha” value ([1]; PBMC + LPS(5 ug/ml) + test article 0.01 uM, individual replicates (1st, 2nd, 3rd)) was 440.0 and 453.5 and 471.5, the “MFI, Bead name: TNF-alpha” value [1, 7] was 452.2 and the “MFI, Bead name: TNF-alpha” value ([1]; PBMC + LPS(5 ug/ml) + test article 0.1 uM, individual replicates (1st, 2nd, 3rd)) was 430.5 and 457.0 and 469.0. For the same molecule, the “MFI, Bead name: TNF-alpha” value [1, 8] was 432.7, the “MFI, Bead name: TNF-alpha” value ([1]; PBMC + LPS(5 ug/ml) + test article 1 uM, individual replicates (1st, 2nd, 3rd)) was 456.0 and 391.0 and 451.0 and the “MFI, Bead name: TNF-alpha” value [1, 9] was 428.3. For the same molecule, the “MFI, Bead name: TNF-alpha” value ([1]; PBMC + LPS(5 ug/ml) + test article 10 uM, individual replicates (1st, 2nd, 3rd)) was 404.0 and 429.0 and 452.0, the “MFI, Bead name: TNF-alpha” value [1, 10] was 311.5 and the “MFI, Bead name: TNF-alpha” value ([1]; PBMC + LPS(5 ug/ml) + test article 100 uM, individual replicates (1st, 2nd, 3rd)) was 330.0 and 293.0. For the same molecule, the MFI [2, 5] was 7229.8, the MFI ([2]; PBMC + LPS(5 ug/ml) + test article 0.001 uM, individual replicates) was 7127.0 and 7646.5 and 6916.0 and the MFI [2, 6] was 6891.3. The MFI ([2]; PBMC + LPS(5 ug/ml) + test article 0.01 uM, individual replicates) was 6942.0 and 6650.0 and 7082.0, the MFI [2, 7] was 6479.0 and the MFI ([2]; PBMC + LPS(5 ug/ml) + test article 0.1 uM, individual replicates) was 7234.0 and 5852.5 and 6350.5. The MFI [2, 8] was 7287.0, the MFI ([2]; PBMC + LPS(5 ug/ml) + test article 1 uM, individual replicates) was 7486.0 and 7253.0 and 7122.0 and the MFI [2, 9] was 5982.2. The MFI ([2]; PBMC + LPS(5 ug/ml) + test article 10 uM, individual replicates) was 6348.5 and 5845.0 and 5753.0, the MFI [2, 10] was 319.5 and the MFI ([2]; PBMC + LPS(5 ug/ml) + test article 100 uM, individual replicates) was 275.0 and 364.0. The “MFI (Bead name: IFN-gamma)” value [3, 5] was 208.0, the “MFI (Bead name: IFN-gamma)” value ([3]; PBMC + LPS(5 ug/ml) + test article 0.001 uM, single replicates) was 208.5 and 230.0 and 185.5 and the “MFI (Bead name: IFN-gamma)” value [3, 6] was 202.8. The “MFI (Bead name: IFN-gamma)” value ([3]; PBMC + LPS(5 ug/ml) + test article 0.01 uM, single replicates) was 207.0 and 190.0 and 211.5, the “MFI (Bead name: IFN-gamma)” value [3, 7] was 191.7 and the “MFI (Bead name: IFN-gamma)” value ([3]; PBMC + LPS(5 ug/ml) + test article 0.1 uM, single replicates) was 216.0 and 148.0 and 211.0. For the same molecule, the “MFI (Bead name: IFN-gamma)” value [3, 8] was 205.8, the “MFI (Bead name: IFN-gamma)” value ([3]; PBMC + LPS(5 ug/ml) + test article 1 uM, single replicates) was 175.0 and 201.0 and 241.5 and the “MFI (Bead name: IFN-gamma)” value [3, 9] was 202.5. For the same molecule, the “MFI (Bead name: IFN-gamma)” value ([3]; PBMC + LPS(5 ug/ml) + test article 10 uM, single replicates) was 199.5 and 199.0 and 209.0, the “MFI (Bead name: IFN-gamma)” value [3, 10] was 106.5 and the “MFI (Bead name: IFN-gamma)” value ([3]; PBMC + LPS(5 ug/ml) + test article 100 uM, single replicates) was 111.0 and 102.0. The MFI ([4]; PBMC + LPS(5 ug/ml) + YDE043 0.001 uM) was 387.0 and 2522.0 and 412.0 and 1107.0, the MFI ([4]; PBMC + LPS(5 ug/ml) + YDE043 0.01 uM) was 405.0 and 391.5 and 429.0 and 408.5 and the MFI ([4]; PBMC + LPS(5 ug/ml) + YDE043 0.1 uM) was 417.0 and 373.5 and 445.5 and 412.0. The MFI ([4]; PBMC + LPS(5 ug/ml) + YDE043 1 uM) was 394.5 and 378.0 and 386.5 and 386.3, the MFI ([4]; PBMC + LPS(5 ug/ml) + YDE043 10 uM) was 411.5 and 391.0 and 403.0 and 401.8 and the MFI ([4]; PBMC + LPS(5 ug/ml) + YDE043 100 uM) was 543.0 and 488.5 and 515.8.

Where “and” joins values, the source holds several entries; their conditions need not be identical. Identical values can stand only once. Where a SMILES comes first, the peptide text is derived from it. [ ]: non-standard residue; d: D form. Hyp = O=C(O)[C@@H]1C[C@@H](O)CN1
